These are yes or no findings as the source states them, for the method shown. Binding seen in cells or lysates may run through a third protein. Some binding calls cover weakened binding; strength is not graded here.
Molecular target: α-Parvin (human (endogenous in human primary neurons)) (UniProt Q9NVD7)
Assay: co-IP; anti-Parvin antibody on RIPA lysates of human primary neurons, untreated, exposed to Tat or TNFα (50 ng/ml, 48 h), or overexpressing PINCH; Western blot of the precipitate

Protein sequences, listed by entry. Tags and fused reporters are not part of them.
UniProt Q15569: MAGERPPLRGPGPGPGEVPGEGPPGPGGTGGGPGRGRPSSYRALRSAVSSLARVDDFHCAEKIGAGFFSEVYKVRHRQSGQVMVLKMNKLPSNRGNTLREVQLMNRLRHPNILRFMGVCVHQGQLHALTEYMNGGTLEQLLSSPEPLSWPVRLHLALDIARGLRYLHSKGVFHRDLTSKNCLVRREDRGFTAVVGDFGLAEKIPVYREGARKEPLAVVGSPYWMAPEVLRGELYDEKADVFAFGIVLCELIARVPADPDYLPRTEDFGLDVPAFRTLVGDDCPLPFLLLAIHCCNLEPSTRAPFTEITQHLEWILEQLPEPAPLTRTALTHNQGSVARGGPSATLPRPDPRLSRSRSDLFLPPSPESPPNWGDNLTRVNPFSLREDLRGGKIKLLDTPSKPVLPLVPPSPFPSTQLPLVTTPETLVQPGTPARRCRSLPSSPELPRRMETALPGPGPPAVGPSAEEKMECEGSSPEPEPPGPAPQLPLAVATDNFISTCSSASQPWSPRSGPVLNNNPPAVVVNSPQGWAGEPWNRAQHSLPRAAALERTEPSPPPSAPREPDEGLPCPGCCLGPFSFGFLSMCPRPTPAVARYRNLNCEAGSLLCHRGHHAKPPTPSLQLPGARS

binding: binds
Substance: testicular protein kinase 1 (TESK1) (from UniProt Q15569 1-626)

Reference: publication PMC7397656
